Results are given in words; binding and its absence hold for the method and conditions named. Some results given as binding are weak or reduced against the parent protein; the word gives no strength.
T1: EC2 deletion mutant of human CDH6 (human) (UniProt P55285)
T1 sequence: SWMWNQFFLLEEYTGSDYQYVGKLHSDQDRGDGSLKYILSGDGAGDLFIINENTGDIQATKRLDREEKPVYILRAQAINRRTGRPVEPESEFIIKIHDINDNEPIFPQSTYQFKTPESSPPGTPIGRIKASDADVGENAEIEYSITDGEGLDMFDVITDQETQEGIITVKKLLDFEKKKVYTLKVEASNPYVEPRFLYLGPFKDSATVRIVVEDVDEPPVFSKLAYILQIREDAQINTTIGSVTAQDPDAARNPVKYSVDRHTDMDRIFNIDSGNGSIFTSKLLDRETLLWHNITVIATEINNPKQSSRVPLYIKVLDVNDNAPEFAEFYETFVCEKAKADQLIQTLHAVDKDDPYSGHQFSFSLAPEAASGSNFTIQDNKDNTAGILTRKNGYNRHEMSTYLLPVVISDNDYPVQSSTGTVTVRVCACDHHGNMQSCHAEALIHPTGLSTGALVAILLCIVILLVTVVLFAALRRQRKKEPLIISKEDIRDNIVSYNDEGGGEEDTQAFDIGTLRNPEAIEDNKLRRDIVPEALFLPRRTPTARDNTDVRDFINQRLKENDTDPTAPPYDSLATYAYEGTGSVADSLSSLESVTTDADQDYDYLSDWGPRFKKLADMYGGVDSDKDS

T2: EC4 deletion mutant of human CDH6 (human) (UniProt P55285)
T2 sequence: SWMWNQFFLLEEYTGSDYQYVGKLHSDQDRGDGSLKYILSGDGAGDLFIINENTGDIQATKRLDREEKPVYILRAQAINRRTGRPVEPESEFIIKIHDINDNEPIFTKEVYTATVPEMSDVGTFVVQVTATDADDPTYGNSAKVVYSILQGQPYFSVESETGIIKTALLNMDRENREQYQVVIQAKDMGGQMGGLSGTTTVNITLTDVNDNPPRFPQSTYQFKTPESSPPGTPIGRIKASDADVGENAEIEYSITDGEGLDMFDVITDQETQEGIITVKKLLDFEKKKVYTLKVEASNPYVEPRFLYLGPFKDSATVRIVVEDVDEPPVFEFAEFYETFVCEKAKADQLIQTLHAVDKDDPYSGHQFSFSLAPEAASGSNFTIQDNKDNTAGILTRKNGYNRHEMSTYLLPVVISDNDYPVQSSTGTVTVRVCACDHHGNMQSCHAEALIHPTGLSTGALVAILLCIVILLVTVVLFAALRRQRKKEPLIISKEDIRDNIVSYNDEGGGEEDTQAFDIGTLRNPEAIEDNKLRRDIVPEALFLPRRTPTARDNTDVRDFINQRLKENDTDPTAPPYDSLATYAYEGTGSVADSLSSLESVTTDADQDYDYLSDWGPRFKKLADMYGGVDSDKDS

T3: EC1 deletion mutant of human CDH6 (human) (UniProt P55285)
T3 sequence: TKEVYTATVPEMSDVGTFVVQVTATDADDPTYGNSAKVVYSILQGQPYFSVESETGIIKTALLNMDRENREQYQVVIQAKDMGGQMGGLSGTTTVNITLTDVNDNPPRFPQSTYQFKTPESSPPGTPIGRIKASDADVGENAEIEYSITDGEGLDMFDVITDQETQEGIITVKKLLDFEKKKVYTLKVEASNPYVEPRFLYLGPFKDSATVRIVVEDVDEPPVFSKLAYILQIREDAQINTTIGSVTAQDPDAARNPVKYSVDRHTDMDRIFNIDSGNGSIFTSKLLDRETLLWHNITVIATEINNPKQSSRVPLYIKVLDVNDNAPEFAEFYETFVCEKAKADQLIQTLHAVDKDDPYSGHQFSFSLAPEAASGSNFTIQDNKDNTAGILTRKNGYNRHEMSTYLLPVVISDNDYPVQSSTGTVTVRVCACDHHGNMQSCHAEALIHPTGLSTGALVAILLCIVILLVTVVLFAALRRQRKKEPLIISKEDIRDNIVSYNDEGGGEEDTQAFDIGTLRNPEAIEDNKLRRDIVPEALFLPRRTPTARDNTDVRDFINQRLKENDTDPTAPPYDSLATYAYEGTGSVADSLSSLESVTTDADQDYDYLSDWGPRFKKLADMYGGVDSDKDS

T4: EC3 deletion mutant of human CDH6 (human) (UniProt P55285)
T4 sequence: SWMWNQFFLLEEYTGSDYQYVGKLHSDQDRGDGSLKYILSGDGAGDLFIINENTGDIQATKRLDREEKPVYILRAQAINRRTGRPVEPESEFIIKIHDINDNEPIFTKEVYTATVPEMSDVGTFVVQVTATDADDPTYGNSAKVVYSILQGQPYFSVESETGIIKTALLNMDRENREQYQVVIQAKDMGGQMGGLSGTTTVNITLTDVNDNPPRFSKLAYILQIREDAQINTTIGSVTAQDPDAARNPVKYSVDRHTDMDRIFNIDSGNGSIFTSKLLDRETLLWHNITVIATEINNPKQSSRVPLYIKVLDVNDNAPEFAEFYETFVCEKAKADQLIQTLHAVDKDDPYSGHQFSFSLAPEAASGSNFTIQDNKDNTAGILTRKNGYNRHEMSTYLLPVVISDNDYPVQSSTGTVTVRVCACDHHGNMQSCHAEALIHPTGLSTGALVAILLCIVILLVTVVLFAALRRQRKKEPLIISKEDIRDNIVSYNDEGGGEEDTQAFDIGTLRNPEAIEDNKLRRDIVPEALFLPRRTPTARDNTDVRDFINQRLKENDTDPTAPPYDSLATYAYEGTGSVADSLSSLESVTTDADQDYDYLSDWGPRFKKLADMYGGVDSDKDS

T5: EC5 deletion mutant of human CDH6 (human) (UniProt P55285)
T5 sequence: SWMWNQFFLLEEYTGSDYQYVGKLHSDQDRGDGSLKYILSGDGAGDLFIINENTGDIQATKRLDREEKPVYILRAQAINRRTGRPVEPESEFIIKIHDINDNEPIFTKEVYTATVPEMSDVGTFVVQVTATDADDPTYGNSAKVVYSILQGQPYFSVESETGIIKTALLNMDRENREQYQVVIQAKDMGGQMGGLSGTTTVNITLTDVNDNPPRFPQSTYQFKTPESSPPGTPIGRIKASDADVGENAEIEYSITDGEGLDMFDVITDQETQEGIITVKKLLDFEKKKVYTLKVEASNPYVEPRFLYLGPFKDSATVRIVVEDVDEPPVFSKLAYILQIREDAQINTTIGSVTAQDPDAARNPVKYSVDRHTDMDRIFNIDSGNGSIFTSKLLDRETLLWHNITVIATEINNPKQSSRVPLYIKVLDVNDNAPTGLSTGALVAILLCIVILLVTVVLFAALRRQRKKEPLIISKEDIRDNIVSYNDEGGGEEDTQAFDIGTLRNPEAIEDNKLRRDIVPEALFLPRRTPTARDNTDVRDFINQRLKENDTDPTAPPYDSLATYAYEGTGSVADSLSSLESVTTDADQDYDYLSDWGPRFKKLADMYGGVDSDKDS


Tests used:
[1] = biological target: T1, EC2 deletion mutant of human CDH6 (human); assay: flow cytometry, transfected 293α cells
[2] = biological target: T2, EC4 deletion mutant of human CDH6 (human); assay: flow cytometry, transfected 293α cells
[3] = biological target: T3, EC1 deletion mutant of human CDH6 (human); assay: flow cytometry, transfected 293α cells
[4] = biological target: T4, EC3 deletion mutant of human CDH6 (human); assay: flow cytometry, transfected 293α cells
[5] = biological target: T3, EC1 deletion mutant of human CDH6 (human); assay: flow cytometry; 293α cells transfected with EC1-deleted hCDH6 (open) vs untransfected control cells (shaded); APC anti-human IgG
[6] = biological target: T2, EC4 deletion mutant of human CDH6 (human); assay: flow cytometry; 293α cells transfected with EC4-deleted hCDH6 (open) vs untransfected control cells (shaded); APC anti-human IgG
[7] = biological target: T4, EC3 deletion mutant of human CDH6 (human); assay: flow cytometry; 293α cells transfected with EC3-deleted hCDH6 (open) vs untransfected control cells (shaded); APC anti-human IgG
[8] = biological target: T1, EC2 deletion mutant of human CDH6 (human); assay: flow cytometry; 293α cells transfected with EC2-deleted hCDH6 (open) vs untransfected control cells (shaded); APC anti-human IgG
[9] = biological target: T5, EC5 deletion mutant of human CDH6 (human); assay: flow cytometry, transfected 293α cells
[10] = biological target: human CDH6 (full-length, on cells) (human) (UniProt P55285); assay: flow cytometry, transfected 293α cells
[11] = biological target: cynomolgus monkey CDH6 (on cells) (cynomolgus monkey); assay: flow cytometry, MFI vs antibody concentration; 293α cells transiently transfected with cynoCDH6; PE anti-human IgG Fc
[12] = biological target: human CDH6 (full-length, on cells) (human) (UniProt P55285); assay: competition flow cytometry on 786-O/hCDH6 cells; competitor: Alexa 488-labeled H01L02 at 5 nM; unlabeled antibody varied [lower panel]
[13] = biological target: human CDH6 (full-length, on cells) (human) (UniProt P55285); assay: flow cytometry, transfected 293α cells, antibody dilution series
[14] = biological target: cynomolgus monkey CDH6 (on cells) (cynomolgus monkey); assay: as above
[15] = biological target: T5, EC5 deletion mutant of human CDH6 (human); assay: flow cytometry; 293α cells transfected with EC5-deleted hCDH6 (open) vs untransfected control cells (shaded); APC anti-human IgG
[16] = biological target: human CDH6 (full-length, on cells) (human) (UniProt P55285); assay: flow cytometry, MFI vs antibody concentration; 293α cells transiently transfected with hCDH6; PE anti-human IgG Fc
[17] = biological target: human CDH6 (full-length, on cells) (human) (UniProt P55285); assay: flow cytometry; 293α cells transfected with full-length hCDH6 (open) vs untransfected control cells (shaded); APC anti-human IgG

binding [1] | binding [2] | binding [3] | binding [4] | binding [5] | binding [6] | binding [7] | binding [8] | binding [9] | binding [10] | binding [11] | binding [12] | binding [13] | binding [14] | binding [15] | binding [16] | binding [17] | Binder
binds | binds | binds | binds | binds | binds | binds | binds | – | – | – | – | – | – | – | – | – | anti-CDH6 antibody NOV0712 (antibody, V domains shown) VH: QVQLLESGGGLVQPGGSLRLSCAASGFTFSSHGMHWVRQAPGKGLEWVSVISGSGSNTGYADSVKGRFTISRDNSKNTLYLQMNSLRAEDTAVYYCARQWGSYAFDSWGQGTLVTVSS VL: DIQMTQSPSSLSASVGDRVTITCRASQSISSYLNWYQQKPGKAPKLLIYAVSTLQSGVPSRFSGSGSGTDFTLTISSLQPEDFATYYCQQSGTFPPTTFGQGTKVEIKR
binds | binds | binds | – | binds | binds | – | binds | binds | binds | binds | binds | binds | binds | binds | binds | binds | H01L02 antibody (antibody, human IgG1, kappa, V domains shown) VH: EVQLVQSGAEVKKPGASVKVSCKASGYTFTRNFMHWVRQAPGQGLEWMGWIYPGDGETEYAQKFQGRVTITADTSTSTAYMELSSLRSEDTAVYYCARGVYGGFAGGYFDFWGQGTLVTVSS VL: DIQMTQSPSSLSASVGDRVTITCKASQNIYKNLAWYQQKPGKAPKLLIYDANTLQTGVPSRFSGSGSGSDFTLTISSLQPEDFATYFCQQYYSGWAFGQGTKVEIKR
binds | binds | binds | – | binds | binds | – | binds | binds | – | – | – | – | – | binds | – | – | H04L02 antibody (antibody, human IgG1, kappa, V domains shown) VH: QVQLVQSGAEVKKPGASVKVSCKASGYTFTRNFMHWIRQAPGQGLEWMGWIYPGDGETEYAQKFQGRVTLTADRSTSTAYMELSSLRSEDTAVYYCARGVYGGFAGGYFDFWGQGTLVTVSS VL: DIQMTQSPSSLSASVGDRVTITCKASQNIYKNLAWYQQKPGKAPKLLIYDANTLQTGVPSRFSGSGSGSDFTLTISSLQPEDFATYFCQQYYSGWAFGQGTKVEIKR

From US20200171163A1
